## Percent effect of library compounds

Protein sequences, listed by entry. Tags and fused reporters are not part of them. Residues count along the entry.
UniProt Q4DA54, 1-478: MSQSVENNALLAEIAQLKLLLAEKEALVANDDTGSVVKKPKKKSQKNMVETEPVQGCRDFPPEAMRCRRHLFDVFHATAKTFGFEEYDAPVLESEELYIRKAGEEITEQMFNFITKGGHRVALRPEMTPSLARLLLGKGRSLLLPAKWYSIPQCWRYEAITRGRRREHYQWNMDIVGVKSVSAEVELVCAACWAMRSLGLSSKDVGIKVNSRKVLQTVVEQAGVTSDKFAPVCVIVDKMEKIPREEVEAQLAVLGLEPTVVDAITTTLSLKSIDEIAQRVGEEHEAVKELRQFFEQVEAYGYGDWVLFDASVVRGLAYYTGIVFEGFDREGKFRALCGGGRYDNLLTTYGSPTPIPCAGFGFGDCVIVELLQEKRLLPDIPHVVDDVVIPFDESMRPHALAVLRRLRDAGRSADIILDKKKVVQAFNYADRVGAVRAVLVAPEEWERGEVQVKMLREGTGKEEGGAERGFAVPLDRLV
UniProt P9WPC5, whole entry: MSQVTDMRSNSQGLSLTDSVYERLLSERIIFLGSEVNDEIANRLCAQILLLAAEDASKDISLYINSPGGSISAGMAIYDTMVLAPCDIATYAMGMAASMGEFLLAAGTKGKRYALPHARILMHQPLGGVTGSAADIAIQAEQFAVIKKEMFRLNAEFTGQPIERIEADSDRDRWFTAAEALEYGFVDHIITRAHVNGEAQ
UniProt P9WPC3, whole entry partner: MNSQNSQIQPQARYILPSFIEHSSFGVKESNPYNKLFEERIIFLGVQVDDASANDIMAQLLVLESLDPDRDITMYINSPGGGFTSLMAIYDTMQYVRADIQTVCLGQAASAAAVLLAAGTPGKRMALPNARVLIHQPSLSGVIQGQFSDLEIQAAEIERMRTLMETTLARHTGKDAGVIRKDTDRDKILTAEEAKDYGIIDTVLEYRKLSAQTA

The values are deposited in ChEMBL (CHEMBL3988442, “University of Dundee, Small-Polar-MMV Screening Library” (2021)).

The filed quantity is “Percent Effect” (%).
The controls that fix the scale are not given in the record; negative values are as filed.
The compounds are a random part of those screened.

TcHisRS: 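Histidine-tRNA ligase, Trypanosoma cruzi CL Brener (UniProt Q4DA54). Enzyme assay of histidyl-tRNA synthetase; the read-out is not stated. Concentration: 30 µM. Direction is inferred from retests: higher values go with stronger inhibition. Size under these conditions: about 69,000 compounds, about 31 of them at 50% or above in at least one test.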
ClpP1P2: 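ClpP1P2, Mycobacterium tuberculosis (UniProt P9WPC5 and UniProt P9WPC3). Protease assay of ClpP1P2, read by the AMC dye that it sets free. Compounds at 50 µM. Higher reads as stronger inhibition, judged from the few compounds that gave an IC50. Most other retested compounds had strongly negative values. Of about 69,000 compounds tested this way, about 10 (0.015%) reached 50% or more in at least one test.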

CCC(CNC(=O)c1ccccn1)N1CCc2ccccc2C1 (centres undefined) read TcHisRS: 3.941%; ClpP1P2: 6.618%. With C[C@@H]1CN(c2ccc(Cl)cn2)C[C@@]1(O)C1CC1 the screen gave TcHisRS: 7.035%; ClpP1P2: -13.57%. With CC1CCN(C(=O)C(C)Oc2ccc3c(c2)OCO3)CC1 (centres undefined) the screen gave TcHisRS: 2.632%; ClpP1P2: -3.043%. With O=C(COc1ccccc1)N(Cc1ccncc1)C1CC1 the screen gave TcHisRS: 9.827%; ClpP1P2: -6.216%. O=C1NCCCCC1Sc1ccc(F)cc1F (centres undefined) gave TcHisRS: 4.95%; ClpP1P2: 10.74%. COc1cccc(-n2c(C)cc(C(=O)O)c2C)c1 gave TcHisRS: 6.015%; ClpP1P2: 9.546%. CCc1nc2n(n1)CC(NCc1noc(-c3ccc(C)cc3)n1)CC2 (centres undefined) read TcHisRS: 2.89%; ClpP1P2: -37.72%.

COc1ccc(CC2(CO)CCN(c3cc(N)ncn3)CC2)cc1 read TcHisRS: 6.087%; ClpP1P2: -3.339%. Cc1ccc(-c2[nH][nH]c(=O)c2CCN)cc1 gave TcHisRS: 1.775%; ClpP1P2: -9.491%. COc1ccc(OCCN(C)CCCn2cnc3c(N)ncnc32)cc1 gave TcHisRS: 7%; ClpP1P2: 1.147%. Fc1ccccc1CN1CCCC2(CCN(c3ncccn3)C2)C1 (centres undefined) read TcHisRS: 5.435%; ClpP1P2: -6.767%. With Cc1ccc(C(=O)Nc2cn[nH]c2)cc1F the screen gave TcHisRS: 2.367%; ClpP1P2: -2.393%. For O=C(CN1CCOC1=O)N1CC[C@@H](c2ccc3ccccc3c2)[C@H](O)C1 the result was TcHisRS: 3.279%; ClpP1P2: -3.475%. With CCc1nn(-c2cc(Oc3ccccc3)nc(C)n2)c(N)c1C#N the screen gave TcHisRS: 1.031%; ClpP1P2: -3.67%.

O=S(=O)(C1CC1)N1CCOC2(CCCN(Cc3ccccn3)C2)C1 (centres undefined) read TcHisRS: 2.222%; ClpP1P2: -1.815%. With CC(=O)N[C@@H]1Cc2ccccc2[C@H]1Nc1cc(C2CC2)ncn1 the screen gave TcHisRS: 3.448%; ClpP1P2: -0.8896%. COc1ccccc1CN(C)C(=O)c1cc(CN2CCC(O)CC2)on1 gave TcHisRS: -1.653%; ClpP1P2: -5.397%. For O=S(=O)(Nc1cnc(N2CCCC2)nc1)c1ccc(OC(F)(F)F)cc1 the result was TcHisRS: 13%; ClpP1P2: -19.47%. O=S(=O)(NCC1COCc2c(-c3ccncc3)nnn2C1)C1CC1 (centres undefined) gave TcHisRS: 12.61%; ClpP1P2: 6.19%. Result for O=C(C(c1ccccc1)S(=O)(=O)c1ccccn1)N1CCCCC1 (centres undefined) was TcHisRS: 10.88%; ClpP1P2: -4.731%. For COc1cccc(COCC(=O)N2CCCC(c3ccn[nH]3)C2)c1 (centres undefined) the result was TcHisRS: 3.779%; ClpP1P2: -12.22%.

O=C(NCCc1ccc(F)cc1)NC1CCCc2c1cnn2CCO (centres undefined) read TcHisRS: 8.333%; ClpP1P2: 13.7%. Result for CNc1nccc(-c2cnc3sc(C)c(C)n3c2=O)n1 was TcHisRS: 4.52%; ClpP1P2: -11.49%. For O=C(NCc1nncn1C1CCCCC1)C1CNCCO1 (centres undefined) the result was TcHisRS: 3.004%; ClpP1P2: -3.992%. CC(C)S(=O)(=O)N1C[C@@H](O)[C@H](N(C)Cc2ccc(F)cc2)C1 read TcHisRS: 6.513%; ClpP1P2: 4.78%. With Cc1nc(CC(=O)NCCNc2nccc(C(F)(F)F)n2)cs1 the screen gave TcHisRS: 0%; ClpP1P2: 6.613%. With CCOC(=O)CSc1nnc([C@@H](N)C(C)CC)o1 (some centres undefined) the screen gave TcHisRS: 1.042%; ClpP1P2: -18.24%. Cc1nc(C)n(CC2CCCN(Cc3cccnc3)C2)n1 (centres undefined) gave TcHisRS: 10.47%; ClpP1P2: -2.154%.

Result for CC(C)(CN1CCOCC1)CN1CCC(Cc2cccc(CO)c2)C1 (centres undefined) was TcHisRS: 2.146%; ClpP1P2: 17.34%. CC(C)(C)NC(=O)Cn1nc(C2CC2)cc(C(F)(F)F)c1=O gave TcHisRS: 3.333%; ClpP1P2: 2.994%. For COC[C@]1(O)CCN(C(=O)c2ccc(CN(C)C)o2)CC1(C)C the result was TcHisRS: 6.077%; ClpP1P2: 2.148%. For O=C(CCc1ccc2c(c1)OCO2)Nc1cccnc1-n1cncn1 the result was TcHisRS: 1.111%; ClpP1P2: -4.713%.

The last 3 entries again:

| compound | TcHisRS | ClpP1P2 |
|---|---|---|
| `CC(C)(C)NC(=O)Cn1nc(C2CC2)cc(C(F)(F)F)c1=O` | 3.333 | 2.994 |
| `COC[C@]1(O)CCN(C(=O)c2ccc(CN(C)C)o2)CC1(C)C` | 6.077 | 2.148 |
| `O=C(CCc1ccc2c(c1)OCO2)Nc1cccnc1-n1cncn1` | 1.111 | -4.713 |